Record: PubChem BioAssay AID504791 (Drosophila RNAi Screening Center, 2011)

Purpose: 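Genes of the fly required for silencing by miRNA, siRNA or endo-siRNA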 (primary screen)
System: Drosophila S2-derived reporter cells
Reagents: long dsRNA against Drosophila genes, about 150-250 ng dsRNA per well (siRNA assay); about 80-120 ng (miRNA assay)
Timing: about 5 days (siRNA assay); about 4 days (miRNA assay)
Challenge: copper sulfate induction of reporters: 25 µM (siRNA assay); 200 mM stated (miRNA assay), 1-2 days before reading
Read-out: 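Dual luciferase assay: Renilla to firefly signal ratio in each well, scaled to the mean ratio of its plate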
Units: stable assay Renilla, run 1 in luminescence; stable assay firefly, run 1 in luminescence
Call rule: 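a well was a first-pass pick when its plate-scaled ratio rose above 1.5 (siRNA assay) or 1.6 (miRNA assay), or dropped below 0.6; a gene counted only if two separate dsRNAs agreed on retest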
The screen tested about 23,000 reagents; below is a random part of those that have a named target and a result. In the full data, 199 (0.86%) were called active. 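Plate-scaled ratios behind the calls are not deposited; printed light signals are raw; many rows marked increased or decreased are still called inactive.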 The numbers tell different reagents against one gene apart. No sequences are given here. Not stated in the record: the direction of the score.

For CG15549 (GeneID 43665) the deposit lists stable assay Renilla, run 1 = 5592; stable assay firefly, run 1 = 3.26e5; inactive.
CIAPIN1 (GeneID 49424) gave stable assay Renilla, run 1 = 10606; stable assay firefly, run 1 = 1.55e6; inactive.
For Tpi (GeneID 43582), the values are stable assay Renilla, run 1 = 9539; stable assay firefly, run 1 = 6.26e5; inactive.
With knock-down of Cyp49a1 (GeneID 36105) #1, the screen gave miRNA reporter change reporter ratio lowered past the hit cutoff; stable assay Renilla, run 1 = 6319; stable assay firefly, run 1 = 3.66e5; inactive.
After knock-down of Cyp49a1 (GeneID 36105) #2 the results were stable assay Renilla, run 1 = 6799; stable assay firefly, run 1 = 4.39e5; inactive.
CG6607 (GeneID 42925) gave stable assay Renilla, run 1 = 6242; stable assay firefly, run 1 = 2.83e5; inactive.
Fur2 (GeneID 32604) scored stable assay Renilla, run 1 = 6055; stable assay firefly, run 1 = 5.62e5; inactive.
Knock-down of CG1998 (GeneID 32300) gave: stable assay Renilla, run 1 = 4423; stable assay firefly, run 1 = 4.38e5; inactive.

Part of the list above, set out differently.
{"gene knocked down":"Cyp49a1 (GeneID 36105)","reagent":2,"stable assay Renilla, run 1":6799,"stable assay firefly, run 1":4.39e5,"activity call":"inactive"}
{"gene knocked down":"CG6607 (GeneID 42925)","reagent":1,"stable assay Renilla, run 1":6242,"stable assay firefly, run 1":2.83e5,"activity call":"inactive"}

The listing continues.
Against MrgBP (GeneID 35880) the deposit lists stable assay Renilla, run 1 = 6634; stable assay firefly, run 1 = 4.78e5; inactive.
mRpL43 (GeneID 37750) #1 gave stable assay Renilla, run 1 = 3971; stable assay firefly, run 1 = 3.80e5; inactive.
mRpL43 (GeneID 37750) #2 scored stable assay Renilla, run 1 = 4579; stable assay firefly, run 1 = 3.66e5; inactive.
With knock-down of Twdlbeta (GeneID 36265), the record shows stable assay Renilla, run 1 = 6242; stable assay firefly, run 1 = 2.95e5; inactive.
